No constants are given. Whether binding was seen depends on the method and setting. Binding can be weak; no strength is given.

The results in this text go back to patent publication US20230295329A1 (published 2023).

For the assay, the target named is Cyno PD-1 antigen (purchased from Sino Biological) (cynomolgus monkey). Description: SPR (Biacore T200).

B1: Hu23-11.IgG4AA (antibody, V domains shown)
VH: EVQLVQSGAEVKKPGSSVKVSCKASGGTFSDYEMHWVRQAPGQGLEWMGLIDPETGGTVYNQKFKDRVTITADKSTSTAYMELSSLRSEDTAVYYCARERFSYYGSTSDWYFDVWGQGTTVTVSS
VL: DIVMTQTPLSLPVTPGEPASISCRSSQSLVHSTGNTYLEWYLQKPGQSPQLLIYKVSNRFSGVPDRFSGSGSGTDFTLKISRVEAEDVGVYYCFQGSHVPYTFGGGTKVEIKR
notes: Full-length IgG4-AA (S228P, F234A, L235A) antibody with kappa light chain; LCDR1 mutant N28T (Kabat)
B1: the binding entry is “binds”.

B2: Hu32a-85.IgG4AA (antibody, V domains shown)
VH: EVQLVQSGAEVKKPGSSVKVSCKASDFTFTDYEIHWVKQAPGHGLEWIGLFDPETGGIVYNQKFKGKATLTADKSTSTAYMEFSSLRSEDTAVYYCTREGYNRDWYFDVWGQGTTVTVSS
VL: B1 VL
notes: Full-length IgG4-AA (S228P, F234A, L235A) antibody with kappa light chain
Turning to B2, the binding entry was “binds”.
